Reference: US20250339396A1 (COSMAS THERAPEUTICS DEVELOPMENT INC., priority 2021, published 2025)
Some results were stated once for a whole list of compounds, not compound by compound.

System: neuropathic (SNI) rats
Assay: Mechanical allodynia (von Frey, 50% paw withdrawal threshold) after spared nerve injury (SNI)
Format: in vivo, rat
Details: 50 mg/kg per os
Protocol: Experiments were performed in male Sprague-Dawley rats (body weight: 250-300 g; Charles River Laboratories, St. Constant, QC, Canada) and adult male C57BL mice (body weight: 25-30 g; inbred). All animals were housed in small groups at a constant temperature of 22° C., with food and water provided ad libitum, and maintained under a 12 h light/dark cycle (lights on at 7:00 AM; lights off at 7:00 PM). All experimental procedures were conducted in accordance with the guidelines of the Canadian Council on Animal Care, and the protocols were approved by the Animal Care Committee at McGill University.
The different prodrug compounds as synthesized in Example 2 were tested and compared with Gabapentin (150 mg/kg, purchased from Sigma Aldrich, US). Prodrug was dissolved in saline, water, or a vehicle composed of 40% PEG400 and 60% water. Gabapentin was dissolved in a vehicle composed of 40% PEG400 and 60% water. […]
On day 14 after surgery, individual rats were placed in a test chamber (clear plastic wire mesh-bottomed cage) and allowed to acclimatize for 30 to 40 minutes. […] After the determination of the basal response, allodynia was assessed at baseline, 0.5, 1, 1.5, 2, 2.5, 3, 4, 5, 6, 7, and 8 hours post-administration for each treatment described below. […]

| Structure (SMILES) | Area Under the Curve (AUC) of withdrawal threshold vs. vehicle, Bonferroni p (FIG. 1B) |
| --- | --- |
| CCOC(=O)OCN(CCN(c1ccc(F)cc1)c1cccc(Br)c1)C(C)=O [Prodrug B, (N-(2-((3-bromophenyl)(4-fluorophenyl)amino)ethyl)acetamido) methyl ethyl carbonate] | < 0.05 |
| CC(=O)N(CCN(c1ccc(F)cc1)c1cccc(Br)c1)C(=O)OC(C)OC(=O)CN.Cl (centres unmarked) [Prodrug C, 1-((acetyl(2-((3-bromophenyl)(4-fluorophenyl)amino)ethyl)carbamoyl)oxy)ethyl 2-aminoacetate hydrochloride] | < 0.05 |
